The values that follow come from doi:10.1101/2025.06.20.659860.

Results are given in words; binding and its absence hold for the method and conditions named. In cells and extracts the contact can be indirect. These calls come from enrichment with a bait or labelling near it, and not all partners need be listed.

For assay [1], the target named is DENV NS4A (AP-MS, DENV-infected Huh7) (dengue virus serotype 2 (EDEN2)). The assay is described as follows: affinity purification with mass spectrometry.
For assay [2], the target named is DENV NS3 (AP-MS, DENV-infected Huh7) (dengue virus serotype 2 (EDEN2)). Description: affinity purification with mass spectrometry.

B1: STT3A (endogenous, Huh7) (protein, UniProt P46977 1-705)
chain: MTKFGFLRLSYEKQDTLLKLLILSMAAVLSFSTRLFAVLRFESVIHEFDPYFNYRTTRFLAEEGFYKFHNWFDDRAWYPLGRIIGGTIYPGLMITSAAIYHVLHFFHITIDIRNVCVFLAPLFSSFTTIVTYHLTKELKDAGAGLLAAAMIAVVPGYISRSVAGSYDNEGIAIFCMLLTYYMWIKAVKTGSICWAAKCALAYFYMVSSWGGYVFLINLIPLHVLVLMLTGRFSHRIYVAYCTVYCLGTILSMQISFVGFQPVLSSEHMAAFGVFGLCQIHAFVDYLRSKLNPQQFEVLFRSVISLVGFVLLTVGALLMLTGKISPWTGRFYSLLDPSYAKNNIPIIASVSEHQPTTWSSYYFDLQLLVFMFPVGLYYCFSNLSDARIFIIMYGVTSMYFSAVMVRLMLVLAPVMCILSGIGVSQVLSTYMKNLDISRPDKKSKKQQDSTYPIKNEVASGMILVMAFFLITYTFHSTWVTSEAYSSPSIVLSARGGDGSRIIFDDFREAYYWLRHNTPEDAKVMSWWDYGYQITAMANRTILVDNNTWNNTHISRVGQAMASTEEKAYEIMRELDVSYVLVIFGGLTGYSSDDINKFLWMVRIGGSTDTGKHIKENDYYTPTGEFRVDREGSPVLLNCLMYKMCYYRFGQVYTEAKRPPGFDRVRNAEIGNKDFELDVLEEAYTTEHWLVRIYKVKDLDNRGLSRT
With B1, in assay [1], the binding result is recorded as “binds”.

B2: DDOST (endogenous, Huh7) (protein, UniProt P39656 43-456)
chain: SGPRTLVLLDNLNVRETHSLFFRSLKDRGFELTFKTADDPSLSLIKYGEFLYDNLIIFSPSVEDFGGNINVETISAFIDGGGSVLVAASSDIGDPLRELGSECGIEFDEEKTAVIDHHNYDISDLGQHTLIVADTENLLKAPTIVGKSSLNPILFRGVGMVADPDNPLVLDILTGSSTSYSFFPDKPITQYPHAVGKNTLLIAGLQARNNARVIFSGSLDFFSDSFFNSAVQKAAPGSQRYSQTGNYELAVALSRWVFKEEGVLRVGPVSHHRVGETAPPNAYTVTDLVEYSIVIQQLSNGKWVPFDGDDIQLEFVRIDPFVRTFLKKKGGKYSVQFKLPDVYGVFQFKVDYNRLGYTHLYSSTQVSVRPLQHTQYERFIPSAYPYYASAFSMMLGLFIFSIVFLHMKEKEKSD
As to B2, the binding result in assay [1] is recorded as “binds”.

B3: RPN1 (endogenous, Huh7) (protein, UniProt P04843 24-607)
chain: ASSEAPPLINEDVKRTVDLSSHLAKVTAEVVLAHLGGGSTSRATSFLLALEPELEARLAHLGVQVKGEDEEENNLEVRETKIKGKSGRFFTVKLPVALDPGAKISVIVETVYTHVLHPYPTQITQSEKQFVVFEGNHYFYSPYPTKTQTMRVKLASRNVESYTKLGNPTRSEDLLDYGPFRDVPAYSQDTFKVHYENNSPFLTITSMTRVIEVSHWGNIAVEENVDLKHTGAVLKGPFSRYDYQRQPDSGISSIRSFKTILPAAAQDVYYRDEIGNVSTSHLLILDDSVEMEIRPRFPLFGGWKTHYIVGYNLPSYEYLYNLGDQYALKMRFVDHVFDEQVIDSLTVKIILPEGAKNIEIDSPYEISRAPDELHYTYLDTFGRPVIVAYKKNLVEQHIQDIVVHYTFNKVLMLQEPLLVVAAFYILFFTVIIYVRLDFSITKDPAAEARMKVACITEQVLTLVNKRIGLYRHFDETVNRYKQSRDISTLNSGKKSLETEHKALTSEIALLQSRLKTEGSDLCDRVSEMQKLDAQVKELVLKSAVEAERLVAGKLKKDTYIENEKLISGKRQELVTKIDHILDAL
With B3, in assay [1], the binding entry is “binds”.

B4: CPSF3 (endogenous, Huh7) (protein, UniProt Q9UKF6 1-684)
chain: MSAIPAEESDQLLIRPLGAGQEVGRSCIILEFKGRKIMLDCGIHPGLEGMDALPYIDLIDPAEIDLLLISHFHLDHCGALPWFLQKTSFKGRTFMTHATKAIYRWLLSDYVKVSNISADDMLYTETDLEESMDKIETINFHEVKEVAGIKFWCYHAGHVLGAAMFMIEIAGVKLLYTGDFSRQEDRHLMAAEIPNIKPDILIIESTYGTHIHEKREEREARFCNTVHDIVNRGGRGLIPVFALGRAQELLLILDEYWQNHPELHDIPIYYASSLAKKCMAVYQTYVNAMNDKIRKQININNPFVFKHISNLKSMDHFDDIGPSVVMASPGMMQSGLSRELFESWCTDKRNGVIIAGYCVEGTLAKHIMSEPEEITTMSGQKLPLKMSVDYISFSAHTDYQQTSEFIRALKPPHVILVHGEQNEMARLKAALIREYEDNDEVHIEVHNPRNTEAVTLNFRGEKLAKVMGFLADKKPEQGQRVSGILVKRNFNYHILSPCDLSNYTDLAMSTVKQTQAIPYTGPFNLLCYQLQKLTGDVEELEIQEKPALKVFKNITVIQEPGMVVLEWLANPSNDMYADTVTTVILEVQSNPKIRKGAVQKVSKKLEMHVYSKRLEIMLQDIFGEDCVSVKDDSILSVTVDGKTANLNLETRTVECEEGSEDDESLREMVELAAQRLYEALTPVH
Take B4: the binding entry in assay [2] is “binds”.
